These are yes or no findings as the source states them, for the method shown. Binding seen in cells or lysates may run through a third protein. A yes stands for co-enrichment or nearness to the bait. Other partners may have been found.
Target: T1, Fos-like antigen 1 (FOSL1) (human (endogenous in U251R and LN229R)) (UniProt P15407)
T1 sequence: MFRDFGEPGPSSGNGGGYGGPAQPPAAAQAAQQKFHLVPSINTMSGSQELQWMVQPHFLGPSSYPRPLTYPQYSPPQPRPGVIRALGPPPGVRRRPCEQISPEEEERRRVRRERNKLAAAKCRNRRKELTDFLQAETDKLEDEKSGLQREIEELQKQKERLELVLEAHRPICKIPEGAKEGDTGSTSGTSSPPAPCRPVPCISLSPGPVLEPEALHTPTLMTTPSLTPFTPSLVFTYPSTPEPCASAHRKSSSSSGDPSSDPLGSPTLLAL
Assay: affinity purification with mass spectrometry; anti-FOSL1 immunoprecipitation from U251R cells against input; SDS-PAGE, in-gel trypsin digestion, LC-MS/MS (timsTOF Pro)

Protein sequences, listed by entry. Tags and fused reporters are not part of them.
UniProt Q99873: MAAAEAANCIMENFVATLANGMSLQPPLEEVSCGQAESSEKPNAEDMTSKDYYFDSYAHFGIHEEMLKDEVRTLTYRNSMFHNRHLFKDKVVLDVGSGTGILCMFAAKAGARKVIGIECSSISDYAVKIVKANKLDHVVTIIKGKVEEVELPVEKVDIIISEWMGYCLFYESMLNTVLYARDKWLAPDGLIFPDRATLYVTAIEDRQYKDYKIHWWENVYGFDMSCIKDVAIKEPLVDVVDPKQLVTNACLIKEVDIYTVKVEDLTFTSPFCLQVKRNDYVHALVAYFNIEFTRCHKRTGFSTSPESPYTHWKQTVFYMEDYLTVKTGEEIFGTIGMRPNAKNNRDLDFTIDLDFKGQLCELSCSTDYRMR

binding: binds
Substance: Protein Arginine Methyltransferase 1 (PRMT1) (from UniProt Q99873 1-371) (enzyme)

Reference: article PMC12719381
